# Results from PubChem BioAssay AID1671190 (National Center for Advancing Translational Sciences (NCATS), 2021).
# Protein sequences, listed by entry. Tags and fused reporters are not part of them. Lines headed by an entry give the natural chain unless they say otherwise; changes in a name come on top.
# UniProt P18054: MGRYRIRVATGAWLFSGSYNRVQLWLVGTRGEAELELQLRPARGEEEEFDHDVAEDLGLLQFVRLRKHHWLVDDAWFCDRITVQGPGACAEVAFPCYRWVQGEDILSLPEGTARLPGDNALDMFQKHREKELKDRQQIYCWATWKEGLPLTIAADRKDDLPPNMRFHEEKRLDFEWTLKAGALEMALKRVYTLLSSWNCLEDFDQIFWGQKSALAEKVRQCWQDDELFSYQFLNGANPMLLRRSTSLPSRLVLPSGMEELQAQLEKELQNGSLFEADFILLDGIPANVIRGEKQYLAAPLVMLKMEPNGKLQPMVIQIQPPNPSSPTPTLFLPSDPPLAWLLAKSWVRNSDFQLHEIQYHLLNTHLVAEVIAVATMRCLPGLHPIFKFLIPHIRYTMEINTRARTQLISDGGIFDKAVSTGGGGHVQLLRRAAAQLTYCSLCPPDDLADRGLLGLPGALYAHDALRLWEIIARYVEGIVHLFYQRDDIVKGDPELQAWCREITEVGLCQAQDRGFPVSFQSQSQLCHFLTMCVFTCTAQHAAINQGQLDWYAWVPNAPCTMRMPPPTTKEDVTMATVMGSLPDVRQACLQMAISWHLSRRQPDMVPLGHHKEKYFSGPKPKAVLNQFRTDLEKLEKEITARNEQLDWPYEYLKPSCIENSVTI
# Where “and” joins values, the source holds several entries; their conditions need not be identical. Equal values may be shown once. About 6,100 (1.1%) of roughly 580,000 compounds were called active. Inconclusive results, whose numbers are uncertain, are shown with a selection of clear calls. Calls come from the whole dose curve; as a rule, active = well fitted inhibition curve with a large enough effect; inconclusive = small, poorly fitted or top-dose-only effect, or another doubt; inactive = no such curve, though single readings can be large or run the other way. Where the call is inconclusive, the potency comes from a doubtful curve fit.
# Biological target: Polyunsaturated fatty acid lipoxygenase ALOX12 (Homo sapiens) (UniProt P18054)
# Assay: Primary qHTS assay for inhibitors of human arachidonate 12S-lipoxygenase (ALOX12): Round 2
# Settings: purified 12hLO, xylenol orange hydroperoxide absorbance; activity change, negative = inhibition: at 108 µM (top of the series) unless noted
# How it was run: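 Hydroperoxide product was detected by ferrous iron/xylenol orange as the 573 to 405 nm absorbance ratio. Arachidonic acid at 40 uM (final) was turned over for 30 min at room temperature by 150 nM human 12hLO, pH 7.0 Hepes buffer, after 15 min compound preincubation.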
# % is set by controls: 0 for no effect and ±100 for the full control effect; potency is the fitted concentration of half-maximal effect.
Structure (SMILES),Potency,"activity change, negative = inhibition"
CCC1CCC2(CC1)NNC(=S)NN2,"inconclusive: 44.7 µM [inhibitor, partial curve]",
Cc1ccc(S(=O)(=O)N2CCC(=O)N(CCOC(=O)Nc3ccccc3C)CC2)cc1,"inconclusive: 56.2 µM [inhibitor, single point]",
O=C(CCN1CCc2ccccc2C(c2ccccc2)C1)c1ccc2c(c1)OCCO2 (stereo not given),"inconclusive: 50.1 µM [inhibitor, partial curve, poor fit]",
CC1(C(=O)NS(=O)(=O)c2ccc(Cl)s2)CCN1C(=O)C1(c2ccc(Cl)cc2)CC1 (stereo not given),"inconclusive: 1.12 µM [inhibitor, full curve]",
CC(=O)Nc1ccc(-c2nn[nH]n2)cc1,"inconclusive: 39.8 µM [inhibitor, partial curve, poor fit]",
CC(C)C[C@H]1CNC(=S)N1C[C@H]1CCCN1C[C@H](Cc1ccc(O)cc1)N1C[C@H](Cc2ccccc2)N(CC2CCCCCC2)C1=S,"inconclusive: 39.8 µM [inhibitor, partial curve, poor fit]",
O=C(Nc1ccc(C(=O)N2CCOCC2)cc1)Nc1cccc(C(F)(F)F)c1,"inconclusive: 112 µM [inhibitor, single point]",
O=C(CN1CCN(c2ccc(O)cc2)CC1)N1CCc2ccccc21,"inconclusive: 31.6 µM [inhibitor, partial curve, poor fit]",
CCOC(=O)c1oc2c(CN3CCN(CCO)CC3)c(O)c(CC)cc2c(=O)c1-c1nc2ccccc2s1,"inconclusive: 1.78 µM [inhibitor, full curve, poor fit]",
COc1ccc(CCC(=O)N(c2nnc(-c3cccnc3)s2)C(C)C)cc1,"inconclusive: 22.4 µM [inhibitor, partial curve, poor fit]",
CC1CCCC(N2CCN(C(=O)c3ccc([N+](=O)[O-])cc3)CC2)C1 (stereo not given),"inconclusive: 0.282 µM [inhibitor, full curve, poor fit]",
COc1ccc(NC(=O)CN(C)S(=O)(=O)c2ccc3[nH]c4c(c3c2)CCCC4)cc1Cl,"inconclusive: 141 µM [inhibitor, partial curve, poor fit]",
CC(=O)N1c2nc(-c3ccco3)nn2C2(CCCCC2)[C@@H]2CCCC[C@@H]21,"inconclusive: 79.4 µM [inhibitor, single point]",
COc1ccc2ccccc2c1C1CC(=O)N2CN(C)CSC2=C1C#N (stereo not given),"inconclusive: 0.501 µM [inhibitor, partial curve, poor fit]",
CCOc1ccccc1NC(=O)CN1CCC(NC(=O)Nc2ccccc2)CC1,"inconclusive: 126 µM [inhibitor, partial curve, poor fit]",
CCN1CCN(c2nc(N(C)c3ccccc3)nc(N)c2[N+](=O)[O-])CC1,"inconclusive: 89.1 µM [inhibitor, partial curve, poor fit]",
COc1ccc(NC(=O)Cc2c(C)c3c(O)cc(C)cc3oc2=O)c(OC)c1,,inactive: 13.5%
CC(C)=CC(=O)Nc1ccccc1Br,,inactive: 10.4%
COc1ccc(-c2nc(C(=O)N3CCN(C(C#N)c4ccc(F)cc4)CC3)cs2)cc1OC (stereo not given),"inconclusive: 79.4 µM [inhibitor, single point]",
Cc1ccc(S(=O)(=O)NNC(=O)C2COc3ccccc3O2)cc1 (stereo not given),,inactive: -10.3%
S=c1[nH]nc(-c2cccnc2)n1/N=C/c1ccccc1,"inconclusive: 31.6 µM [inhibitor, partial curve, poor fit]",
CN1C(=O)/C(=C2\SC(N)=NC2=O)c2ccccc21,"inconclusive: 50.1 µM [inhibitor, partial curve, poor fit]",

# As a working copy, part of the list above:
Structure (SMILES),Potency,"activity change, negative = inhibition"
COc1ccc(NC(=O)Cc2c(C)c3c(O)cc(C)cc3oc2=O)c(OC)c1,,inactive: 13.5%
CC(C)=CC(=O)Nc1ccccc1Br,,inactive: 10.4%
COc1ccc(-c2nc(C(=O)N3CCN(C(C#N)c4ccc(F)cc4)CC3)cs2)cc1OC (stereo not given),"inconclusive: 79.4 µM [inhibitor, single point]",

# A different layout for two compounds above:
Structure (SMILES) | Potency | activity change, negative = inhibition
O=C(Nc1ccc(C(=O)N2CCOCC2)cc1)Nc1cccc(C(F)(F)F)c1 | inconclusive: 112 µM [inhibitor, single point] | 
O=C(CN1CCN(c2ccc(O)cc2)CC1)N1CCc2ccccc21 | inconclusive: 31.6 µM [inhibitor, partial curve, poor fit] | 

# Continued.

Structure (SMILES),Potency,"activity change, negative = inhibition"
CC(C)(C)c1ccc(C(=O)NC(=S)N2CCCCCC2)cc1,,inactive: 409%
COc1ccccc1N1CCN(S(=O)(=O)CCNC(=O)c2cc(OC)c(OC)c(OC)c2)CC1,,inactive: 62.4%
CCNC(=O)NC(=O)CN(C)c1ccccc1F,"inconclusive: 44.7 µM [inhibitor, partial curve, poor fit]",
CC(Sc1nc(Nc2ccccc2)c2ccccc2n1)C(=O)N1CCCC1 (stereo not given),,inactive: 2.65%
COc1ccc(CCN2C(=O)CN(C3CCCCCC3)C(=O)C2c2ccccc2F)cc1OC (stereo not given),"inconclusive: 0.631 µM [inhibitor, full curve, poor fit]",
O=C(CN1CCCC(c2ccccc2)(c2ccccc2)C1)N1CCOCC1,"inconclusive: 56.2 µM [inhibitor, partial curve]",
COc1ccc2nc(SCC(=O)NC3CCCCC3C)[nH]c2c1 (stereo not given),,inactive: 0%
COc1ccc(OC)c(NC(=O)COC(=O)[C@H](Cc2ccccc2)NC(=O)c2ccco2)c1,"inconclusive: 3.98 µM [inhibitor, full curve, poor fit]",
Oc1cccc(C(=S)N2CCCCC2)c1,"inconclusive: 14.1 µM [inhibitor, full curve, poor fit]",
O=C(NCCc1ccccc1)c1c[nH]c2ccc(S(=O)(=O)Nc3ccccc3F)cc2c1=O,"inconclusive: 11.2 µM [inhibitor, full curve, poor fit]",
Cc1cccc(/C=C(/C(=O)NC2CC2)c2cccs2)c1,"inconclusive: 112 µM [inhibitor, single point]",
CC1CCN(C2=NC(=O)/C(=C/c3ccccc3F)S2)CC1,,inactive: -9.35%
N#CCCN1CCCc2cc(N=Nc3ccc(C(F)(F)F)cc3)ccc21,"inconclusive: 112 µM [inhibitor, partial curve, poor fit]",
CSc1nc(-c2ccc(Cl)cc2)nn1S(=O)(=O)c1ccc(Cl)cc1,"inconclusive: 44.7 µM [inhibitor, partial curve, poor fit]",
COCCNC(=O)[C@@H]1C[C@H](Oc2ccccc2)CN1C(=O)COc1ccccc1,,inactive: -6.29%
O=C(/C=C/c1ccco1)NC(=S)Nc1cc(C(F)(F)F)ccc1N1CCOCC1,"inconclusive: 50.1 µM [inhibitor, partial curve, poor fit]",
CCc1cccc(NC(=O)C2CCN(C(=O)c3nnn4c3COC(c3ccc(C)cc3)C4)CC2)c1 (stereo not given),"inconclusive: 79.4 µM [inhibitor, single point]",
CCC(=O)OCC(=O)N=c1sccn1Cc1ccccc1Cl,,inactive: 8.37%
NC(=O)CC(NC(=O)c1cccc(Br)c1)c1ccc(N2CCC(N3CCCC3)CC2)c([N+](=O)[O-])c1 (stereo not given),"inconclusive: 63.1 µM [inhibitor, partial curve, poor fit]",
CCOc1cc(/C=C2\N=C3CCCCCN3C2=O)ccc1O,"inconclusive: 44.7 µM [inhibitor, partial curve, poor fit]",
CCCCc1n[nH]c2c1C(=O)CC(C)(C)C2,"inconclusive: 141 µM [inhibitor, single point]",
O=C(NCCOc1cccc2cccnc12)c1cccs1,,inactive: -4.98%

Structure (SMILES),Potency,"activity change, negative = inhibition"
Cn1c(=O)c2c(nc(Cl)n2CC(=O)N2CCCC2=O)n(C)c1=O,,inactive: -27.9%
C#CCOCCOCCOCCNc1nc(N2CCOCC2)nc(N2CCN(C(=O)[C@H]([C@@H](C)CC)n3cc(CCCN=C(N)N)nn3)CC2)n1,"inconclusive: 39.8 µM [inhibitor, partial curve, poor fit]",
COc1ccc(-c2c(C(F)(F)F)nn(C)c2NC(=O)CSCC(=O)O)cc1,"inconclusive: 44.7 µM [inhibitor, single point]",
COCC(C)NC(=O)c1cc2cc(N(C)S(=O)(=O)c3ccc(Cl)cc3)ccc2s1 (stereo not given),,inactive: -7.36%
CN(C)c1ccc(C(=O)OCc2ccc(C#N)cc2)cc1,,inactive: -1.8%
CCCCC(c1nnnn1CCOC)N1CCN(Cc2ccccc2)CC1 (stereo not given),"inconclusive: 31.6 µM [inhibitor, single point]",
Cc1cccc(NC(=O)CN2C(=O)N/C(=C/c3ccc(C)s3)C2=O)c1,"inconclusive: 50.1 µM [inhibitor, partial curve, poor fit]",
O=[N+]([O-])c1ccc(-c2n(-c3ccccn3)c3ccccc3[n+]2-c2ccccn2)cc1,"inconclusive: 112 µM [inhibitor, single point]",
CC(=O)Nc1ccc(NC(=O)C(C)OC(=O)c2ccc(-n3cnnn3)cc2)cc1 (stereo not given),"inconclusive: 50.1 µM [inhibitor, partial curve, poor fit]",
N#Cc1ccc(C(=O)/C=C/c2cc3ccccc3nc2N2CCOCC2)cc1,active: 11.2 µM,
O=C(O)/C=C/c1ccc2ccccc2n1,,inactive: -1.87%
CC12C=CC(=O)C=C1CCC1C3CCC(O)(C(=O)CO)C3(C)CC(O)C12F (stereo not given),,inactive: 0.351%
C=CCNC(=O)C1CC(=O)N(c2ccc(OCC(=O)Nc3ccc(C)cc3)cc2)C1 (stereo not given),,inactive: -23.9%
COC(=O)c1ccc2nc(-c3ccc(C)cc3)c(Cc3ccsc3)n2c1,active: 39.8 µM,
Cc1ccc2nc(N(CCCN(C)C)C(=O)c3ccc(Br)s3)sc2c1,"inconclusive: 50.1 µM [inhibitor, partial curve, poor fit] and inconclusive: 112 µM [inhibitor, single point]",
CCOC(=O)c1c(NC(=S)Nc2ccccc2)sc2c1CC(C)(C)SC2,"inconclusive: 44.7 µM [inhibitor, partial curve, poor fit]",
CCN(CC)c1ccc(/C=N/NC(=O)c2nnn(-c3nonc3N)c2C(C)C)c(O)c1,,inactive: -19.2%
Cn1c(-c2ccccc2)c(C(=O)CC#N)c2ccccc21,,inactive: 0%
CNC(=O)[C@@H]1C[C@H](n2cc(CN(C)C(=O)Nc3ccc(C)c(C)c3)nn2)CN1,,inactive: 24.8%
COc1ccc(-c2nnc(SCc3ccc(C(=O)O)cc3)o2)cc1OC,"inconclusive: 50.1 µM [inhibitor, partial curve, poor fit]",
CC(=O)NCCNc1ncnc2ccc(-c3ccccc3C(F)(F)F)cc12,"inconclusive: 3.55 µM [inhibitor, full curve, poor fit]",
